Results of single-concentration screens

From ChEMBL document CHEMBL3988442, “University of Dundee, Small-Polar-MMV Screening Library” (2021).

A: 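Whole-parasite assay of Trypanosoma brucei over 72 hours; the read-out is not stated. Compounds at 30 µM. The record gives no direction; compounds that gave an IC50 in retests scored well above the rest, so higher reads as stronger inhibition. Values scatter widely below zero; nearly all retest evidence comes from the higher of the two concentrations used. About 64,000 compounds were tested under these conditions; 1.5% (about 940) showed 50% or more at least once.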
B: 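Cell assay of Leishmania donovani living inside macrophages; the read-out is not stated. Tested at 30 µM. Higher reads as stronger inhibition (inferred: compounds with an IC50 in retests scored well above the rest). Size under these conditions: about 69,000 compounds, about 1,000 of them at 50% or above in at least one test.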

Results are given as percent effect. The controls that fix the scale are not given in the record; negative values are as filed. Compounds were drawn at random from those tested, without regard to their results. Two or more numbers in one place are separate tests of the same structure; such repeats can differ widely. A dash means the value is not listed here; it may have been measured.

SMILES | A | B
CCCOC1CCCN(c2nc(CC)nc3c2cnn3C)C1 (centres unmarked) | -15.99 | 20.32
Cc1cc(C(=O)N2CCCC(C(=O)c3nccn3C)C2)c(=O)[nH]c1C (centres unmarked) | -18.14 | 8.457
O=C(O)C(F)(F)F.[H][C@@]12COC[C@]1([H])[C@@H](OCC1CCOCC1)CN2Cc1cccc(C#N)c1 | -7.123 | 8.454
CCn1c(C)nnc1CN(C)C1CCN(CCc2ccncc2)C1 (centres unmarked) | 2.196 | 25.38
Cc1cc(C)nc(N2CCCC(C(=O)Nc3n[nH]c(C(C)C)n3)C2)n1 (centres unmarked) | -15.58 | 11.65
Cc1nccn1Cc1nnc(C2CCCN(Cc3cccnc3)C2)n1C (centres unmarked) | -8.387 | 8.583
c1ccc(-c2nnc3n2CCN(Cc2ccc4c(c2)OCCO4)C3)cc1 | - | 0.2833
Cn1ccc(C(=O)NC2CCC23CCN(C(=O)c2ccccn2)CC3)c1 (centres unmarked) | -1.983 | 33.33
CCCc1nnc(N2CCN(c3cccc(OC)c3)C(=O)C2)o1 | -20.26 | -23.07
Cc1nc(C)c(CN2CCC(N(C)Cc3nnc(C4CC4)o3)C2)s1 (centres unmarked) | - | 27.33
O=C(NS(=O)(=O)c1c(Cl)cccc1Cl)c1cccc2c1OCCO2 | -24.89 | -37.4
CC(C)CN1CCCC1c1cc[nH]n1 (centres unmarked) | - | -40.62
COCCCN1CC2(CCN(C(=O)Cc3csc(C)n3)CC2)CC1=O | -14.45 | -14.55
CCN1CCN(C2CCN(C(C(N)=O)c3ccccc3)CC2)C1=O (centres unmarked) | -32.59 | 24.96
O=C(CS(=O)(=O)Cc1ccc(F)cc1)NCc1ccccc1F | 14.75 | 35.18
Cc1cccc(CN2CCCC2(C(N)=O)c2cnccn2)n1 (centres unmarked) | -14.67 | 15.85
CC(C)COCCC(=O)Nc1cccnc1-n1cncn1 | -19.17 | 22.92
COc1ccc(OCc2nc(C(=O)N3C[C@H](O)[C@@H](N(C)C)C3)co2)cc1 | -29.46 | 8.476
[H][C@@]12CN(CC(C)C)C[C@]1([H])OCC(=O)N2Cc1nccn1C | -44.07 | -2.522
CC(=O)N[C@@H]1CN(C(=O)c2cc3ccccc3[nH]2)C[C@H]1c1ccc(C)o1 | -7.829 | 13.76
Cn1nccc1C1CCN(Cc2cnn(-c3ccccc3)n2)CC1 | -25.87 | 14.54
Cl.O=S1(=O)CCC(NCCn2cncc2-c2ccc3c(c2)CCCO3)C1 (centres unmarked) | - | -7.742
CS(=O)(=O)NCCN1CCOC2(CCc3ccccc32)C1 (centres unmarked) | -24.15 | 24.49
[H][C@@]12CCCCN(C)[C@]1([H])[C@@H](c1ccccc1)CCN2C(=O)c1ccccc1 | 97.59 | 20.02
COCCCN1CC2(CCN(C(=O)c3ncc(F)cc3F)CC2)CC1=O | -16.91 | 34.97
O=C(NCc1cccnc1N1CCCCC1)c1ccc2[nH]nnc2c1 | -31.18 | -51.2
COc1cc(CNCC(O)c2cccc(F)c2)cc2c1OCO2.Cl (centres unmarked) | 81.63 | 33.8
CNc1nc(N2CCC3(CCCNC3=O)C2)nc2c1CCC2 (centres unmarked) | -16.82 | 4.248
CN(C)Cc1cn2c(n1)CN(CC1CCCC1)CC2.O=C(O)C(F)(F)F.O=C(O)C(F)(F)F | -153 | 27.96
Cc1cnn(CCC(=O)NS(=O)(=O)N2CCc3ccccc32)c1 | -7.112 | -2.149
Cn1cnnc1C1CCN(C(=O)c2cc(-c3ccccc3)on2)CC1 | -50.55 | 2.633
CN1CCN(C(=O)C2CCCN2c2ncnc3ccsc23)CC1 (centres unmarked) | -4.055 | 11.53
Cc1ccc(C(C)N(C)Cc2nc3c(cnn3C)c(=O)[nH]2)s1 (centres unmarked) | - | 25.6
O=C(O)C(F)(F)F.[H][C@]12CCC[C@@H](CN(C)C)[C@@]1([H])CN(c1cccnc1)C2 | -3.316 | 33.6
CSCc1noc(CNC(=O)[C@H]2CNC[C@@H](C(=O)N3CCCC3)C2)n1 | -0.1537 | 19.92
Cc1nnc(C2CCN(c3ncccn3)CC2)o1 | 2.47 | 4.743
CCN(C)CC(=O)N1CCc2nc(NC)nc(C(=O)N3CCCC3)c2C1 | -23.31 | -5.259
Cc1nn(C)c(N2CCOCC2)c1CNCC1CCCN1C (centres unmarked) | -41.75 | -10.12
O=C(c1ccoc1)N1CCc2c(COCC3CC3)cncc2C1 | -10.8 | 15.26
CCn1c(C2CCN(Cc3cc(C)n(NC(C)=O)c3C)CC2)n[nH]c1=O | -8.907 | 16.37
O=S(=O)(N1CCCC1)N1CC(c2ccnc(Nc3ccccn3)n2)C1 | -60.53 | -9.469
Cc1ccc(CNCC2Cn3nncc3CO2)o1 (centres unmarked) | -89.59 | 8.133
Cc1c(NC(=O)N(C)CCO)cccc1OC1CCCC1 | -25.68 | 14.68
CN(Cc1ccccc1)CC(O)Cn1cnc2ccc(Br)cc2c1=O (centres unmarked) | 29.84 | -9.671
O=C(O)C(F)(F)F.O=C(O)C(F)(F)F.[H][C@@]12COC[C@H](C(=O)NCc3ccco3)[C@]1([H])CN(Cc1ccccn1)C2 | -92.67 | 27.78
FC(F)(F)c1ccc(CN2CCN(Cc3cscn3)CC2)cc1 | 8.459 | 22.63
O=C(O)C(F)(F)F.O=C(O)C(F)(F)F.O=C(O)C(F)(F)F.c1cncc(CN2CCC3(CC2)CC(c2cccnc2)CO3)c1 (centres unmarked) | -26.2 | -4.306
CCc1c(C)sc2c1c(N)nc(=O)n2CCN1CCOCC1 | 6.622 | 4.828
O=C1NCCN(Cc2ccoc2)C1CC(=O)N1CCc2sccc2C1 (centres unmarked) | -45.85 | 23.18
Cc1noc(CN2CCC(Cc3ccc(F)cc3)CC2)n1 | -2.984 | 8.319
CCCOc1ccccc1C(N)CC(C)C (centres unmarked) | -40.73 | 24.69
CNC(=O)CCN1CCCC1c1ccccc1Br (centres unmarked) | -41.87 | -10.43
CCc1ncc(C(=O)N2CCC(O)(CN3CCOCC3)C(C)(C)C2)cn1 (centres unmarked) | -13.9 | -21.18
OC(CN(Cc1ccccc1)Cc1cscn1)c1cccs1 (centres unmarked) | -16.75 | 16.55
COc1cccc(C(C)N2CCN(S(=O)(=O)c3ccccc3)CC2)c1 (centres unmarked) | -27.83 | -5.849
[H][C@@]12CNC[C@]1([H])N(C(=O)c1ccccc1)CCO2 | -81.33 | 15.75
CN(C)CCN(C)C(=O)Cc1ccc2c(c1)OCCO2.O=C(O)CC(O)(CC(=O)O)C(=O)O | 11.74 | 9.778 & 10.25
CCN(C(=O)c1ccc(-n2ncc(C#N)c2N)cc1)C1CCCC1 | 3.749 | 36.15
Cc1cccc(CN2CCN(c3nc(CO)cs3)CC2)c1 | -32.52 | 18.96

Repeated from the top, 4 entries:

| SMILES | A | B |
|---|---|---|
| `CCCOC1CCCN(c2nc(CC)nc3c2cnn3C)C1` (centres unmarked) | -15.99 | 20.32 |
| `Cc1cc(C(=O)N2CCCC(C(=O)c3nccn3C)C2)c(=O)[nH]c1C` (centres unmarked) | -18.14 | 8.457 |
| `O=C(O)C(F)(F)F.[H][C@@]12COC[C@]1([H])[C@@H](OCC1CCOCC1)CN2Cc1cccc(C#N)c1` | -7.123 | 8.454 |
| `CCn1c(C)nnc1CN(C)C1CCN(CCc2ccncc2)C1` (centres unmarked) | 2.196 | 25.38 |